Experimental data as given in PMC6683576.

Chains of the proteins cited; added tags and fusions are not shown.
UniProt P11142: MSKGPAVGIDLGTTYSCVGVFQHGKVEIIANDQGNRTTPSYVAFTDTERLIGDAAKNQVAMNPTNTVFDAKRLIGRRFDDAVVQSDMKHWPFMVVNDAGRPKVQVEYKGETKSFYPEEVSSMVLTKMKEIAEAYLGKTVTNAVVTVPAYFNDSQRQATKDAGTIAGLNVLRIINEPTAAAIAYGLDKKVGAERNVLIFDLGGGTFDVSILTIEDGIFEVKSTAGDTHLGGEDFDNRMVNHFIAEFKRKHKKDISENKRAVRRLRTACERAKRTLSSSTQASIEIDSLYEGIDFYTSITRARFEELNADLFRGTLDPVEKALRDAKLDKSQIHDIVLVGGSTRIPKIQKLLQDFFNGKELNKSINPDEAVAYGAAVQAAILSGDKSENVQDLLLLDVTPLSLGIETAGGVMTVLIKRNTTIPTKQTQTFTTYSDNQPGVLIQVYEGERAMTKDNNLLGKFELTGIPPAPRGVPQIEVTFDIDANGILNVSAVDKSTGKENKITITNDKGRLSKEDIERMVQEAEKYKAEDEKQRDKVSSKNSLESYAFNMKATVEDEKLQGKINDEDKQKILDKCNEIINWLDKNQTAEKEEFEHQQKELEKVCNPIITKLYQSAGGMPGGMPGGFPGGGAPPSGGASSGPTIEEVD

Biological target: T1, GKN2 (myc-tagged) (human) (UniProt Q86XP6)
T1 sequence: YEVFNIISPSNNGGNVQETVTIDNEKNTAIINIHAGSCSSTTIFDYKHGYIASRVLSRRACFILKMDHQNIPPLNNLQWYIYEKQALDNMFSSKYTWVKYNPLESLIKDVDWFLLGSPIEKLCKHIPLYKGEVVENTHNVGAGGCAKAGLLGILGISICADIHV
Assay: affinity purification with mass spectrometry; anti-myc antibody on Protein-G-Agarose beads, lysates of GKN2-overexpressing and control cells, overnight; SDS-PAGE, band excision, in-gel digestion, LC-MS/MS

binding: binds
Substance: Hsc70 (from UniProt P11142 1-646)

These are yes or no findings as the source states them, for the method shown. In cells and extracts the contact can be indirect. Here binding means that the protein was enriched with, or labelled near, the bait; the list need not be complete. Sequences can lack the tags named with a protein.
